From PubChem BioAssay AID2685 (National Center for Advancing Translational Sciences (NCATS), 2010)
Hit rate of the full screen: of about 320,000 compounds, about 2,100 (0.66%) were called active. Inconclusive means that the source gave no clear call. Such entries were picked first, then a sample of the others. The call rests on the fitted dose curve; in most records, active means well fitted inhibition curve with a large enough effect in the signal ratio, with a control signal flat (not every such curve was filed as active); inconclusive means small, poorly fitted or top-dose-only effect, or effect the other way, or a change in a side signal; inactive means flat fitted curve, though single readings scatter; the % refers to the signal ratio. Potencies beside an inconclusive call are fits to weak or partial responses and may not hold up.

Test: qHTS Assay for Lipid Storage Modulators in Drosophila S3 Cells
Conditions: BODIPY lipid droplet fluorescence, 18-24 h, cells fed with added oleic acid; lipid storage change, negative = inhibition: at 46.1 µM (top of the series) unless noted
How it was run: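 Laser-scanning cytometry quantifies lipid droplet accumulation (500–530 nm total intensity; droplet/cell object ratio) in oleic acid-fed (400 uM added) Drosophila S3 cells treated with a concentration series. 20 uM Triacsin C defined 100% inhibition.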
On the % scale 0 is the no-effect control and ±100 the full control effect; potency means the concentration at half of the fitted maximal effect.

SMILES | lipid storage change, negative = inhibition | Potency | outcome
Cc1ccc(CNC(=O)c2cc(COc3c(F)cccc3F)on2)s1 | inconclusive: 14.1% |  | 
Nn1c(SCC(=O)NC(=O)Nc2ccc3c(c2)OCCO3)nnc1C1CC1 | inconclusive: 42.2% |  | 
CC1(C)CC(=O)c2cnc3c(C#N)cnn3c2C1 | inconclusive: 2.87% |  | 
CCc1nc(SCC(=O)NCCc2ccccc2)c2c(=O)n(C)c(=O)n(C)c2n1 | inconclusive: 6.88% |  | 
C=CCNc1nc(N)c([N+](=O)[O-])c(NCc2ccccc2)n1 | inconclusive: 13% |  | 
CN1/C(=C\C=N\NC(=O)c2ccc(O)cc2)C(C)(C)c2ccccc21 |  | active: 2.31 µM | 
Cn1c(N)c(C(=O)COC(=O)c2ccco2)c(=O)n(C)c1=O | inconclusive: -26.8% |  | 
c1ccc2c(c1)CCCN2Cc1nnnn1C1CCCC1 | inconclusive: -14.8% |  | 
CNC(=O)C(Sc1ccccc1)c1ccccc1 (configuration not stated) | inconclusive: 2.87% |  | 
O=C(NCCc1ccccc1)C1CC(=O)N(c2ccc3c(c2)OCCO3)C1 (configuration not stated) | inconclusive |  | 
COc1ccc(Br)cc1/C=N/NC(=O)c1cccc(S(=O)(=O)N2CCOCC2)c1 | inconclusive: -22% |  | 
Cc1nc2c(-c3ccc(F)cc3)cnn2c(N)c1-c1ccccc1 |  | inconclusive: 20.6 µM [falling, single point] | 
Cc1nn(C)cc1C(C(=O)NC1CCCCC1)N(C(=O)Cc1cccs1)c1ccc(C(C)C)cc1 (configuration not stated) |  | inconclusive: 3.66 µM [activator, single point] | 
O=C(O)C1C(C(=O)O)C1(c1ccccc1)c1ccccc1 (configuration not stated) | inconclusive: -17.5% |  | 
Cc1ccc(F)c(NC(=O)c2ccc(Cn3cc(Cl)cn3)cc2)c1 | inconclusive: -30% |  | 
CCn1c(=O)cc(SCC(=O)Nc2ccc(Cl)cc2)c2ccccc21 |  | inconclusive: 1.84 µM [activator, full curve] | 
CCc1ccc(CNC(=O)c2ccc(OC)c(OC3CCN(C(C)C)CC3)c2)nc1 | inconclusive: -6.67% |  | 
COC(=O)c1[nH]c2ccc(C)cc2c1NC(=O)CN1CCCc2ccccc21 |  | inconclusive: 6.51 µM [cytotoxic, full curve] | 
CCOC(=O)CNC(c1ccccc1)c1cc(Br)ccc1NC(=O)CCN1CCOCC1 (configuration not stated) | inconclusive: -8.58% |  | 
COc1ccc(/C(C)=N/Nc2nccnc2Cl)cc1 |  | inconclusive: 0.0058 µM [falling, full curve, poor fit] | 
COc1cc([N+](=O)[O-])ccc1NC(=O)/C=C\C(=O)O | inconclusive: -44.6% |  | 
O=C(NCCCN1CCOCC1)C(=O)NCc1ccccc1 |  | inconclusive: 0.146 µM [falling, full curve, poor fit] | 
O=C(O)c1ccc(N2C(=O)CCCC2=O)cc1 |  | inconclusive: 0.058 µM [falling, full curve, poor fit] | 
[O-]/[N+](=C/c1cccnc1)c1ccc(Br)cc1 | inconclusive: 18.9% |  | 
O=C(N=Nc1c(O)[nH]c2ccc(F)cc12)c1ccc(NS(=O)(=O)c2cccs2)cc1 |  | inconclusive: 18.4 µM [activator, partial curve] | 
O=C(COc1ccc([N+](=O)[O-])cc1)Nc1cccnc1 |  | inconclusive: 13 µM [activator, single point] | 

SMILES | lipid storage change, negative = inhibition | Potency | outcome
CCn1c(SCC(=O)Nc2cc(OC)c(OC)c(OC)c2)nnc1-c1cccs1 | inconclusive: -6.14% |  | 
O=C(NCCN1CCOCC1)c1ccccc1[N+](=O)[O-] | inconclusive: 11.2% |  | 
C=CCn1c(SCC(=O)Nc2c(C)n(C)n(-c3ccccc3)c2=O)nc2scc(-c3ccccc3)c2c1=O |  | inconclusive: 0.517 µM [rising, full curve, poor fit] | 
CN(Cc1c(F)cccc1Cl)C(=O)c1ccc2ccccc2n1 |  |  | inactive [at 46.1 µM]
COc1ccccc1-c1sc2cc3c(cc2c1C#CCO)OCO3 |  | inconclusive: 0.0231 µM [falling, full curve, poor fit] | 
COc1ccc(NC(=O)CSc2nnc(C3CCCCC3)n2N)c(OC)c1 |  | inconclusive: 4.61 µM [activator, single point] | 
O=C(CN1C(=O)C2CC=CCC2C1=O)Nc1ccc(OC(F)(F)F)cc1 (configuration not stated) | inconclusive: 16% |  | 
CNC(=S)Nc1ccc([N+](=O)[O-])cc1C | inconclusive: -27% |  | 
CCOC(=O)c1c(C)[nH]c(C(=O)N/N=C\c2ccccc2Cl)c1C | inconclusive: -4.78% |  | 
Cc1cc(NS(=O)(=O)c2ccc(NC(=O)c3c(F)c(F)c(F)c(F)c3F)cc2)nc(C)n1 | inconclusive: -72.7% |  | 
CCn1ccnc1CNC(=O)c1ccc2oc(CCCc3ccccc3)nc2c1 | inconclusive: 6.5% |  | 
CCC(=O)c1ccc(OCC(=O)N2CCN(c3ccccn3)CC2)cc1 | inconclusive: 11.2% |  | 
Cc1ccc(S(=O)(=O)N2[C@@H](c3ccc(Cl)cc3)C(C(=O)O)=CC[C@H]2c2cccc(Cl)c2)cc1 |  | inconclusive: 6.51 µM [activator, single point] | 
Cn1cc([N+](=O)[O-])c(C(=O)Nc2ccc3nc(-c4ccccc4)[nH]c3c2)n1 |  | inconclusive: 0.411 µM [rising, full curve] | 
CSc1ccc(C2=CC(=O)C[C@H](c3ccc(Cl)cc3)C2)cc1 | inconclusive: 21.2% |  | 
OC1CN=C2C=CC=CN2C1 (configuration not stated) | inconclusive: -32.7% |  | 
COCCn1c(SCC(=O)Nc2ccc(OC)cc2OC)nc2ccccc2c1=O |  | inconclusive: 1.64 µM [falling, partial curve, poor fit] | 
CN(Cc1cccs1)C(=O)CCc1c[nH]c2ccccc12 | inconclusive: 38.5% |  | 
NS(=O)(=O)c1ccc(CCNS(=O)(=O)c2ccc(Cl)cc2)cc1 |  | inconclusive: 0.0046 µM [activator, full curve, poor fit] | 
Cc1ccc(C2(C)NC(=O)N(CC(=O)NC(=O)NCCC(C)C)C2=O)cc1 (configuration not stated) | inconclusive: -39.9% |  | 
Cc1ccc(C2C(C(=O)O)c3ccccc3C(=O)N2C)c(C)c1 (configuration not stated) | inconclusive: -21.8% |  | 
Nc1nc2c(-c3ccc(Br)cc3)nnn2c2ccccc12 | inconclusive: -10.6% |  | 
Cc1ccc(S(=O)(=O)Cc2ccc(C(=O)NCCCN3CCCC3=O)o2)cc1 |  | inconclusive: 1.64 µM [activator, partial curve] | 
C=CCN1C(=O)/C(=C2/Sc3ccc(OC)cc3N2C)SC1=Nc1cccc(O)c1 | inconclusive: -10.4% |  | 
COC(=O)c1ccccc1NC(=O)NN1CCN(C)CC1 |  | inconclusive: 1.3 µM [activator, partial curve] | 
C/C(=N\NC(=S)NCC(C)(C)C)c1cc(F)cc(F)c1O |  | inconclusive: 29.1 µM [falling, single point] | 

SMILES | lipid storage change, negative = inhibition | Potency | outcome
Cc1cc(N2CCN(S(=O)(=O)Cc3ccccc3)CC2)n2ncnc2n1 |  |  | inactive [at 46.1 µM]
COC(=O)CNC(=O)C1CCN(S(=O)(=O)c2cnc[nH]2)CC1 |  | active: 0.326 µM | 
CC(C)NC(=O)CCn1c(=S)oc2ccccc21 |  | inconclusive: 6.51 µM [falling, single point] | 
COCCn1c(C)cc(C(=O)CSc2cc(C)c3ccccc3n2)c1C | inconclusive: -14.2% |  | 
CC1CCN(CCCNC(=O)C2CC(=O)N(CCc3ccccc3)C2)CC1 (configuration not stated) | inconclusive: 132% |  | 
C=CCc1cccc(CNc2c(C)cc(C)cc2C)c1O | inconclusive: 22.3% |  | 
CC1(N2CCCCC2)CC2(O)C(=[N+]1[O-])CCC/C2=N\O (configuration not stated) | inconclusive: -16.7% |  | 
Cc1n[nH]c(=O)c2c(NC(=O)CSc3nnc(-c4ccncc4)n3C)oc(C)c12 | inconclusive: 1.22% |  | 
O=C(/C=C/c1ccccc1)OCc1cncs1 | inconclusive: -17% |  | 
Cc1ccc2c(=O)cc(C(=O)NCCc3ccc(S(N)(=O)=O)cc3)oc2c1C | inconclusive: 9.13% |  | 
Cc1cc(Nc2cccc([N+](=O)[O-])c2)n2c(nc3ccccc32)c1C#N |  | inconclusive: 29.1 µM [falling, single point] | 
CCOC(=O)C1CCCN(C(=O)Nc2ccccc2)C1 (configuration not stated) | inconclusive: -18.2% |  | 
O=C(NCCCn1ccnc1)Nc1ccc(Cl)cc1 | inactive: 1.02% |  | 
CN(C(=O)c1ccnn1C)C1CCCN(Cc2ccccc2F)C1 (configuration not stated) | inconclusive: 247% |  | 
COC(=O)N/N=C\c1cc(Br)ccc1OCc1ccccc1 |  | inconclusive: 3.26 µM [activator, full curve] | 
C/C(=N\NC(=O)c1cccc(Br)c1)c1cccnc1 | inconclusive: -19.6% |  | 
Cc1c(NC(=O)c2cc(-c3ccc(Cl)c(Cl)c3)on2)c(=O)n(-c2ccccc2)n1C | inconclusive: 160% |  | 
O=C(O)CN(c1ccccc1)C1SC(=O)NC1=O (configuration not stated) |  | active: 7.31 µM | 
COc1ccc(C(C)(C)C)cc1NC(=O)c1ccc2c(c1)SC1=NS(=O)(=O)CCN12 | inconclusive: 50.1% |  | 
O=C(Nc1ccccc1N1CCOCC1)C1(c2ccc(Cl)cc2)CCC1 |  | inconclusive: 29.1 µM [rising, partial curve, poor fit] | 
COc1ccc(NC(C)=O)cc1NC(C)C(=O)Nc1cccc(S(=O)(=O)N2CCOCC2)c1 (configuration not stated) | inconclusive: 17.9% |  | 
COc1ccc(OC)c(NC(=O)CCN2CC(C)CC(C)C2)c1 (configuration not stated) |  | inconclusive: 0.0052 µM [activator, full curve, poor fit] | 
CC(=O)N1CCOc2cc(S(=O)(=O)Nc3cccc(C(F)(F)F)c3)c(Cl)cc21 | inconclusive: 20.3% |  | 
CN1CCN(C(=S)NC(=O)c2ccc(S(=O)(=O)N3CCOCC3)cc2)CC1 |  | inconclusive: 25.9 µM [falling, single point] | 
Cc1ccc(-n2c(SCC(=O)N/N=C/c3c(C)nn(-c4ccccc4)c3C)nc3ccccc3c2=O)cc1 | inconclusive: 7.08% |  | 
